Source: PubChem BioAssay AID504861 (Broad Institute, 2011)
The whole screen tested about 1,200 compounds, of which about 290 (24%) were called active. Another 3% or so got no clear call; they are omitted.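 Rule for the calls: active = compounds lowering cell viability signal with fitted half-maximal concentration at most ten times their highest tested concentration; inconclusive = flat fit with 30 to 70% signal loss, or poor fit; inactive = the rest.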 The entries are a selection whose mix differs from that of the whole data set. Measured potencies and affinities stand elsewhere.

Experiment: cytotoxicity in HEK293T cells – cell-based, CellTiter-Glo luminescence, cherry-picks, cytotoxicity control for LMP1 NF-kB inhibitor project, dose response (AID 504861)
Conditions: HEK293T viability, CellTiter-Glo ATP luminescence, 48 h; at 26 µM (top of the series)

**Q.** For COc1ccc(S(=O)(=O)NC(CC(=O)NCc2ccco2)C(C)C)cc1 (stereo unspecified), which activity change, negative = cytotoxicity is on record?
**A.** The activity change, negative = cytotoxicity was inactive: 7.05%.

**Q.** For COCCNC(=O)NC12CC3(C)CC(C)(CC(C)(C3)C1)C2, which activity change, negative = cytotoxicity is on record?
**A.** Its activity change, negative = cytotoxicity is inactive: 8.53%.

**Q.** For COc1ccc(-c2csc3ncnc(Sc4nnnn4C)c23)cc1, which activity change, negative = cytotoxicity is on record?
**A.** Its activity change, negative = cytotoxicity is inactive: 1.75%.

**Q.** With CC(C)(C)n1nc(-c2ccc(Cl)cc2)c2c(N)ncnc21 as the molecule, how does the activity change, negative = cytotoxicity read?
**A.** Its activity change, negative = cytotoxicity is inactive: 5.92%.

**Q.** For Cc1ccnc(SCCn2c(N3CCN(c4ccccc4)CC3)nc3c2c(=O)[nH]c(=O)n3C)n1, which activity change, negative = cytotoxicity is on record?
**A.** The activity change, negative = cytotoxicity was inactive: 17.5%.

**Q.** With COc1ccc(C(=O)CN(CCC(=O)O)S(=O)(=O)c2ccc([N+](=O)[O-])cc2)cc1 as the molecule, how does the activity change, negative = cytotoxicity read?
**A.** Its activity change, negative = cytotoxicity is inactive: 11.7%.

**Q.** For CC(=O)c1ccccc1OCC(=O)Nc1cccc(S(=O)(=O)N2CCCC2)c1, which activity change, negative = cytotoxicity is on record?
**A.** Its activity change, negative = cytotoxicity is inactive: 11.5%.

**Q.** Which activity change, negative = cytotoxicity does the source give for O=C(NCc1ccco1)C1CC(=O)N(c2cccc(Cl)c2)C1 (stereo unspecified) here?
**A.** Its activity change, negative = cytotoxicity is inactive: -0.584%.

**Q.** Which activity change, negative = cytotoxicity does the source give for CC[C@]1(C(=O)OC)[C@H]2C(=O)N(Cc3ccccc3)C(=O)[C@H]2[C@H]2CN=C(SCc3ccc(C#N)cc3)N21 here?
**A.** The activity change, negative = cytotoxicity was inactive: -4.07%.

**Q.** For COC(=O)CN(c1ccccc1F)S(=O)(=O)c1ccc(C)cc1, which activity change, negative = cytotoxicity is on record?
**A.** Its activity change, negative = cytotoxicity is inactive: 1.16%.

**Q.** For CN(C)/C=C/C(=O)c1ccc2noc(-c3ccccc3)c2c1, which activity change, negative = cytotoxicity is on record?
**A.** Its activity change, negative = cytotoxicity is inactive: 9.21%.

**Q.** For NC(=O)c1ncn([C@@H]2O[C@H](CO)[C@@H](O)[C@H]2O)n1, which activity change, negative = cytotoxicity is on record?
**A.** Its activity change, negative = cytotoxicity is inactive: 12.4%.

**Q.** Which activity change, negative = cytotoxicity does the source give for O=C1/C(=C/c2cccnc2)SC(=S)N1Cc1ccco1 here?
**A.** Its activity change, negative = cytotoxicity is inactive: 5.5%.

**Q.** Which activity change, negative = cytotoxicity does the source give for COc1ccc(-c2csc(Nc3cccc(C)n3)n2)cc1OC here?
**A.** The activity change, negative = cytotoxicity was inactive: 24.9%.

**Q.** Which activity change, negative = cytotoxicity does the source give for Cc1cccc(-n2c(O)c(C=Nc3c(C)n(C)n(-c4ccccc4)c3=O)c3ccccc3c2=O)n1 here?
**A.** The activity change, negative = cytotoxicity was inactive: 2%.

**Q.** Which activity change, negative = cytotoxicity does the source give for O=C1C=Cc2cccc3ccc(O)c1c23 here?
**A.** The activity change, negative = cytotoxicity was inactive: -9.9%.

**Q.** Which activity change, negative = cytotoxicity does the source give for Fc1cccc(Cl)c1/C=N/n1c(-c2cccnc2)n[nH]c1=S here?
**A.** Its activity change, negative = cytotoxicity is inactive: 6.12%.

**Q.** With CN=C1S/C(=C\c2ccc(O)c(Br)c2)C(=O)N1C as the molecule, how does the activity change, negative = cytotoxicity read?
**A.** The activity change, negative = cytotoxicity was inactive: 6.54%.

**Q.** For Cn1cc(SCC(=O)NCC2CCCO2)c2ccccc21 (stereo unspecified), which activity change, negative = cytotoxicity is on record?
**A.** Its activity change, negative = cytotoxicity is inactive: 8.72%.

**Q.** With CS(=O)(=O)Nc1ccc(C2=NN(S(C)(=O)=O)C(c3ccccc3)C2)cc1 (stereo unspecified) as the molecule, how does the activity change, negative = cytotoxicity read?
**A.** The activity change, negative = cytotoxicity was inactive: -1.16%.

**Q.** For Cc1cc(C)n2nc(CC(=O)NC3CCCCCC3)nc2n1, which activity change, negative = cytotoxicity is on record?
**A.** Its activity change, negative = cytotoxicity is inactive: 8.73%.

**Q.** With CCOC(=O)c1ccc(NC(=O)CSc2nc(N3CCOCC3)nc(N3CCOCC3)n2)cc1 as the molecule, how does the activity change, negative = cytotoxicity read?
**A.** Its activity change, negative = cytotoxicity is inactive: -0.033%.

**Q.** For O=C1C2CCCN2c2ccc(S(=O)(=O)N3CCOCC3)cc2N1Cc1ccccc1F (stereo unspecified), which activity change, negative = cytotoxicity is on record?
**A.** Its activity change, negative = cytotoxicity is inactive: 8.51%.

**Q.** With CCSc1nc2ccc(OC)cc2cc1C#N as the molecule, how does the activity change, negative = cytotoxicity read?
**A.** Its activity change, negative = cytotoxicity is inactive: 5.12%.

**Q.** Which activity change, negative = cytotoxicity does the source give for CCC(Oc1ccccc1)C(=O)NC1CCSC1=O (stereo unspecified) here?
**A.** The activity change, negative = cytotoxicity was inactive: 11.1%.

**Q.** With c1cncc(CNc2ncnc3ccc(-c4ccoc4)cc23)c1 as the molecule, how does the activity change, negative = cytotoxicity read?
**A.** The activity change, negative = cytotoxicity was inactive: 3.52%.
